From paper PMC4827801 come the findings set out here.

The assay addresses HPV31 E8^E2C-HA (Human papillomavirus 31). The assay is described as follows: co-IP; lysates of stable 293T cell lines (1.5 x 10^7 cells) precipitated with magnetic anti-HA beads, immunoblot for endogenous proteins; IP-buffer 50mM HEPES pH7.5, 150mM NaCl, 10% glycerol, 5mM EDTA, 1mM DTT or 50mM HEPES pH7.9, 150mM NaCl, 0.3% Igepal 630, 1mM DTT.

These are yes or no findings as the source states them, for the method shown. Binding seen in cells or lysates may run through a third protein. Binding calls can cover weak binding; strength is not graded here.

B1: TBL1 (transducin-beta like 1) (protein, UniProt O60907 1-577)
chain: MTELAGASSSCCHRPAGRGAMQSVLHHFQRLRGREGGSHFINTSSPRGEAKMSITSDEVNFLVYRYLQESGFSHSAFTFGIESHISQSNINGTLVPPAALISILQKGLQYVEAEISINEDGTVFDGRPIESLSLIDAVMPDVVQTRQQAFREKLAQQQASAAAAAAAATAAATAATTTSAGVSHQNPSKNREATVNGEENRAHSVNNHAKPMEIDGEVEIPSSKATVLRGHESEVFICAWNPVSDLLASGSGDSTARIWNLNENSNGGSTQLVLRHCIREGGHDVPSNKDVTSLDWNTNGTLLATGSYDGFARIWTEDGNLASTLGQHKGPIFALKWNRKGNYILSAGVDKTTIIWDAHTGEAKQQFPFHSAPALDVDWQNNTTFASCSTDMCIHVCRLGCDRPVKTFQGHTNEVNAIKWDPSGMLLASCSDDMTLKIWSMKQEVCIHDLQAHNKEIYTIKWSPTGPATSNPNSNIMLASASFDSTVRLWDIERGVCTHTLTKHQEPVYSVAFSPDGKYLASGSFDKCVHIWNTQSGNLVHSYRGTGGIFEVCWNARGDKVGASASDGSVCVLDLRK
On to B1, for which the binding entry is recorded as “binds”.
